Residue numbers refer to the chain shown, from its start. The exact form of at least one protein or probe is not confirmed. Where a protein sequence is shown, tags need not be part of it.
Experiments:
Assay in all cases: fluorescence anisotropy
FL hPus1p (Homo sapiens) = target: T1, FL hPus1p (Homo sapiens) (UniProt Q9Y606); details: 5-fluorouridine at U206-equivalent position (index in oligo not given), 10 mM HEPES pH 7.0, 150 mM NaCl, 5 mM MgCl2, 5 mM TCEP, 20°C, RNA fixed at 1 µM, recombinant protein, protein details: N-terminal 9xHis, TEV-cleaved, label: 5'-fluorescein, letters put together from the description
T1 sequence (looked up, limits assumed): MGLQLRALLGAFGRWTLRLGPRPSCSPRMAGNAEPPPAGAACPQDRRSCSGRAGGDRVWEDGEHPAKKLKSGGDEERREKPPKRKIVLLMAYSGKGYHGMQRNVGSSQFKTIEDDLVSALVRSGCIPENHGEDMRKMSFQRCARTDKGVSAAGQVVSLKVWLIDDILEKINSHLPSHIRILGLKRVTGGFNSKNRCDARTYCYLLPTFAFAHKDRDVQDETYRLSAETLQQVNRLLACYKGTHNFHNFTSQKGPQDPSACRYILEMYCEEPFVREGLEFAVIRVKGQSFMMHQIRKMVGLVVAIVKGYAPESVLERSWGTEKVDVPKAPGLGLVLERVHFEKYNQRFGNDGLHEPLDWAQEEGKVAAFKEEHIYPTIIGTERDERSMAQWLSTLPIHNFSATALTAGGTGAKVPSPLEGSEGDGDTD

ΔhPus1p (Homo sapiens) = target: T2, ΔhPus1p (Homo sapiens) (UniProt Q9Y606); details: 5-fluorouridine at U206-equivalent position (index in oligo not given), 10 mM HEPES pH 7.0, 150 mM NaCl, 5 mM MgCl2, 5 mM TCEP, 20°C, RNA fixed at 1 µM, recombinant protein, residues 83-394, protein details: N-terminal 9xHis, TEV-cleaved, label: 5'-fluorescein, letters put together from the description
T2 sequence (looked up): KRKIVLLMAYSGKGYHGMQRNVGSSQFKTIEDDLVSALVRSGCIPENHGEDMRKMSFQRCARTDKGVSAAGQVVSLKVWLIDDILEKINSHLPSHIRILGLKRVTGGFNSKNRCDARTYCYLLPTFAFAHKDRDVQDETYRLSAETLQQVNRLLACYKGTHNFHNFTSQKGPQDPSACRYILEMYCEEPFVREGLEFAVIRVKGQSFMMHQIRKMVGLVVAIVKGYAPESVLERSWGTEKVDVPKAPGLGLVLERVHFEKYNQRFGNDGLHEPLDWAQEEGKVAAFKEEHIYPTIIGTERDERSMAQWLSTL

[1] = target: T3, D146A ΔhPus1p (Homo sapiens) (UniProt Q9Y606); details: n=1; 5-fluorouridine at U206-equivalent position (index in oligo not given); 10 mM HEPES pH 7.0, 150 mM NaCl, 5 mM MgCl2, 5 mM TCEP, 20°C; RNA fixed at 1 µM; recombinant protein; residues 83-394; protein details: N-terminal 9xHis, TEV-cleaved; label: 5'-fluorescein; letters put together from the description
T3 sequence (looked up): T2 sequence (looked up) with D64A

Sequence: GCCCCAAUACCUGUGGG [H7 SRA truncation 4]
- Kd (FL hPus1p (Homo sapiens); n=0.7): 96 nM
- Kd (ΔhPus1p (Homo sapiens); n=0.8): 74 nM

Sequence: GCCCCAAUGGGGCCUUUCGAGGUCCCCACCUGUGGG [H7 SRA truncation 1]
- Kd (FL hPus1p (Homo sapiens); n=1): 103 nM
- Kd (ΔhPus1p (Homo sapiens); n=0.8): 219 nM

Sequence: GCCCCAAUGGGGUUCGCCCCACCUGUGGG [H7 SRA truncation 2]
- Kd [1]: 3.9 µM
- Kd (FL hPus1p (Homo sapiens); n=0.8): 111 nM
- Kd (ΔhPus1p (Homo sapiens); n=1): 94 nM

Sequence: GCCCCAAUGGGGCCUCCACCUCCUUCAAGUAAGGCUCCCAGGUCCCCACCUGUGGG [H7 SRA FL]
- Kd (FL hPus1p (Homo sapiens); n=1): 219 nM
- Kd (ΔhPus1p (Homo sapiens); n=1): 484 nM

Sequence: GCCAAUGGGUUCGCCCCACCUGUG [H7 SRA truncation 3]
- Kd (FL hPus1p (Homo sapiens); n=1): 122 nM
- Kd (ΔhPus1p (Homo sapiens); n=0.7): 95 nM

Reference: PMC3983220
